# From PubChem BioAssay AID1439 (NMMLSC, 2008)
# Sequences of proteins named here, by UniProt entry; tags and fusion partners are left off.
# UniProt P09471, whole entry, looked up: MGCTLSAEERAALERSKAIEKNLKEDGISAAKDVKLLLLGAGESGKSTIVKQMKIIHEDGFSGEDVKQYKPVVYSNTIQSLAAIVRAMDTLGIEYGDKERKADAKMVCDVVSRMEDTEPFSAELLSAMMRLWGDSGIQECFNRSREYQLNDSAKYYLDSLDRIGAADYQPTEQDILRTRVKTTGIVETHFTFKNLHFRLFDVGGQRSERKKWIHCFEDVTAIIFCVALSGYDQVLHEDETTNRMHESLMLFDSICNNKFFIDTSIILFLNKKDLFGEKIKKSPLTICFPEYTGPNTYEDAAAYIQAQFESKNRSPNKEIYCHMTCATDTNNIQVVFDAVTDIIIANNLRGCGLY
# Out of some 220,000 compounds screened, about 770 (0.35%) were called active. Inconclusive means that the source gave no clear call. Such entries were picked first, then a sample of the others. No stated cut-off is given here; in the data, active means binding response below about 49% or above about 150%; inconclusive means no clear call, values can overlap the other calls; inactive means in between.
# Target: Guanine nucleotide-binding protein G(o) subunit alpha (Homo sapiens) (UniProt P09471)
# Assay: RGS7-Galphao binding modulators, primary screen, biochemical, multiplexed bead flow cytometry (AID 1439);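 further: fluorescent Galphao held in activated GDP-AlF4 state binding bead-coupled RGS7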
# Settings: at 10 µM, actives lie on both sides
row,Structure (SMILES),binding response (% of control)
1,Cc1nc(C(=O)NNC(=O)Nc2ccccc2)cs1,inconclusive: 71.3%
2,C/C(=N\NC1=N[C@H]2CS(=O)(=O)C[C@H]2S1)c1ccccc1,inconclusive: 115%
3,CCCCC#Cc1ccc2c(c1)COc1c3ccccc3nn1-2,inconclusive: 93.1%
4,N=c1sccn1CC(=O)Nc1cccc(S(=O)(=O)N2CCCCCC2)c1,inconclusive: 69.9%
5,CC(C)(C)C(=O)C(Cl)C(=O)Nc1ccccc1 (configuration not stated),inconclusive: 96.7%
6,Cc1cnc(C(=O)OCC(=O)c2cc(C)n(C)c2C)cn1,inconclusive: 70.8%
7,CCOc1ccc(S(=O)(=O)NCCC(=O)OCC(=O)c2ccc[nH]2)cc1,inconclusive: 82.8%
8,CC(=O)c1ccc(Sc2ccccc2N)c([N+](=O)[O-])c1,inconclusive: 91.5%
9,O=C(Cc1ccccc1)Nn1c(O)c(/C=C2\C=Nc3ccccc32)sc1=S,inactive: 99.7%
10,CCOC(=O)C1=C(C)NC(=O)NC1c1ccc([N+](=O)[O-])o1 (configuration not stated),inconclusive: 241%
11,Cc1ccc(C2=Nc3ccccc3SC(c3cccc([N+](=O)[O-])c3)C2)cc1 (configuration not stated),inconclusive: 117%
12,O=C(Nc1nnc(COc2ccccc2)s1)Nc1ccccc1F,inconclusive: 96.5%
13,CC(C)(C)c1cc(C(=O)NNc2cc(C(F)(F)F)ccc2Cl)n(Cc2ccccc2)n1,inconclusive: -97.8%
14,CCC(Cc1ccccc1)n1c(=S)[nH]c2ccccc2c1=O (configuration not stated),inactive: 97.3%
15,Cc1nnc(NC(=O)CCSc2ccc(Cl)cc2)s1,inconclusive: 122%
16,N#Cc1c(N2CCOCC2)nsc1-c1ccccc1,inconclusive: 131%
17,CCOC(=O)c1ccc(NC(=O)CC2SC3=NCCN3C2=O)cc1 (configuration not stated),inconclusive: 32.9%
18,CCOC(=O)C1CCCCN1Cc1cn(C)nc1-c1ccccc1F (configuration not stated),inconclusive: 90%
19,O=C(/C=C/c1ccc(F)cc1)Nc1ccc2[nH]c(=O)[nH]c2c1,inconclusive: -47%
20,O=C(c1ccc(N2CCCC2)c([N+](=O)[O-])c1)N1CCN(CCO)CC1,inconclusive: 44.9%
21,COC(CNC(=O)c1ccc2c3c(onc13)-c1ccccc1C2=O)OC,inconclusive: -330%
22,CC(C)(C)OC(=O)NC(CC(=O)OCc1ccccc1)C(=O)O (configuration not stated),inconclusive: 110%
23,Cc1ccc2[nH]c(O)c(N=NC(=O)CCc3ccccc3)c2c1Br,inactive: 88.1%

# Grouped by structure: the compounds so far containing a carbonyl joined to an NH by a bond outside any ring.
row,Structure (SMILES),binding response (% of control)
1,Cc1nc(C(=O)NNC(=O)Nc2ccccc2)cs1,inconclusive: 71.3%
4,N=c1sccn1CC(=O)Nc1cccc(S(=O)(=O)N2CCCCCC2)c1,inconclusive: 69.9%
5,CC(C)(C)C(=O)C(Cl)C(=O)Nc1ccccc1 (configuration not stated),inconclusive: 96.7%
9,O=C(Cc1ccccc1)Nn1c(O)c(/C=C2\C=Nc3ccccc32)sc1=S,inactive: 99.7%
12,O=C(Nc1nnc(COc2ccccc2)s1)Nc1ccccc1F,inconclusive: 96.5%
13,CC(C)(C)c1cc(C(=O)NNc2cc(C(F)(F)F)ccc2Cl)n(Cc2ccccc2)n1,inconclusive: -97.8%
15,Cc1nnc(NC(=O)CCSc2ccc(Cl)cc2)s1,inconclusive: 122%
17,CCOC(=O)c1ccc(NC(=O)CC2SC3=NCCN3C2=O)cc1 (configuration not stated),inconclusive: 32.9%
19,O=C(/C=C/c1ccc(F)cc1)Nc1ccc2[nH]c(=O)[nH]c2c1,inconclusive: -47%
21,COC(CNC(=O)c1ccc2c3c(onc13)-c1ccccc1C2=O)OC,inconclusive: -330%
22,CC(C)(C)OC(=O)NC(CC(=O)OCc1ccccc1)C(=O)O (configuration not stated),inconclusive: 110%

# Molecules from the list above that have an aryl thioether with sulfur outside any ring, in the order listed:
row,Structure (SMILES),binding response (% of control)
8,CC(=O)c1ccc(Sc2ccccc2N)c([N+](=O)[O-])c1,inconclusive: 91.5%
15,Cc1nnc(NC(=O)CCSc2ccc(Cl)cc2)s1,inconclusive: 122%

# Following part:

row,Structure (SMILES),binding response (% of control)
1,NS(=O)(=O)c1ccc(CCNC(=O)COC(=O)/C=C/c2ccccc2Cl)cc1,inactive: 97.7%
2,Cc1cc(CNC(=O)COc2ccc(C#N)cc2)c2ccccc2n1,inconclusive: 108%
3,COc1ccc(Cl)cc1S(=O)(=O)n1cnc2ccccc21,inactive: 139%
4,Cc1ccc(-n2nc(C(=O)N/N=C/c3cccc(C(F)(F)F)c3)c3ccccc3c2=O)cc1C,inactive: 91%
5,Cc1ccc(N2C(=O)CC(Sc3cccs3)C2=O)cc1 (configuration not stated),inconclusive: 74.7%
6,CCOC(=O)N1CCC(N2CCN(S(=O)(=O)c3ccc([N+](=O)[O-])cc3)CC2)CC1,inconclusive: 117%
7,CCCCOc1ccc(C(C)NC(=O)C2CCCN(S(=O)(=O)CCC)C2)cc1 (configuration not stated),inactive: 95.5%
8,CC(C)CC(=O)/C(=C\c1ccc(Cl)cc1Cl)n1cncn1,inactive: 50.9%
9,CC(C)c1ccc(S(=O)(=O)/N=C2/C=CC(=O)c3ccccc32)cc1,inactive: 98.1%
10,CC1(C)CC(NC2C3CC4CC(C3)CC2C4)CC(C)(C)N1 (configuration not stated),inconclusive: 137%
11,CC(=O)c1ccc(NC(=S)Nc2ccc3cn[nH]c3c2)cc1,inconclusive: 112%
12,CC(C)CCn1c(=O)[nH]c2ccccc21,inconclusive: 103%
13,CCOc1ccccc1NC(=O)C(=O)N/N=C/c1ccc([N+](=O)[O-])cc1,inconclusive: 108%
14,CCOC(=O)C1C(c2ccc(OC)c(OC)c2)c2c([nH][nH]c2=O)CC1(C)O (configuration not stated),inconclusive: 84.7%
15,Cn1c(SCCOc2ccc(Cl)cc2)nnc1-c1ccncc1,inactive: 99.4%
16,O=C1N(Cc2cccnc2)C[C@@H]2C[C@@H](c3cccc(Oc4ccccc4)c3)N3CCC[C@@]123,inconclusive: 109%
17,COc1ccccc1NC(=S)NC(C)C(c1cccs1)N1CCOCC1 (configuration not stated),inconclusive: 99.5%
18,COc1cccc(OC)c1C(=O)Nc1nc2cc3c(cc2s1)OCO3,inconclusive: 89.9%
19,CC(C)=NNc1nc(-c2ccc(N3C(=O)CCC3=O)cc2)cs1,inconclusive: -47.4%
20,Cc1nc2ccccc2nc1OCc1cccc([N+](=O)[O-])c1,inconclusive: 84.5%
21,Nc1nnn(CC(=O)N/N=C/c2cn[nH]c2-c2ccccc2)n1,inconclusive: 121%
22,O=[N+]([O-])c1ccccc1Nc1ccccc1,inconclusive: 92.8%
23,N#Cc1ccccc1Cn1cc(/C=C/[N+](=O)[O-])c2ccccc21,inactive: 91.5%

row,Structure (SMILES),binding response (% of control)
1,CC1=C(C(=O)Nc2ccccc2F)C(c2cccs2)NC(=S)N1 (configuration not stated),inconclusive: 81.5%
2,CCCC[n+]1ccn(C2=C([O-])c3ccccc3C(=O)/C2=N\S(=O)(=O)c2ccc(Cl)cc2)c1,inconclusive: 19.8%
3,O=C(O)CSc1ccc(NC(=O)Nc2ccccc2F)cc1,inconclusive: 102%
4,Cc1ccc(N2C(=O)C(CC(=O)Nc3cccc(F)c3)N(C3CC3)C2=O)cc1 (configuration not stated),inconclusive: 113%
5,O=Cc1cccn1Cc1ccccc1[N+](=O)[O-],inactive: 94.8%
6,Oc1ccc(N=Nc2ccc3c(c2)OCCO3)c(O)c1,inconclusive: 102%
7,O=C(O)CC1c2ccccc2S(=O)(=O)N1Cc1ccccc1 (configuration not stated),inconclusive: 101%
8,CCCCCC(=O)Nc1cccc(C2=NOC3(C2)C[C@H](C(N)=O)N(C(=O)c2ccccc2C(=O)c2ccccc2)C3)c1 (some centres not stated),inconclusive: 91.2%
9,CCn1c(SCC(=O)C(C)(C)C)nnc1-c1ccccn1,inactive: 101%
10,COc1ccc(N2CC(O)=C(c3nc(-c4ccc(F)cc4)cs3)C2=N)cc1OC,inconclusive: 116%
11,O=C1C2(CCCC13COC(c1ccc(O)cc1)OC3)COC(c1ccc(O)cc1)OC2 (configuration not stated),inconclusive: 47.5%
12,O=C(NNc1c(Cl)cccc1Cl)c1c(F)cccc1Cl,inconclusive: 332%
13,COc1ccc(/C=C2\SC(=S)N(N3CCOCC3)C2=O)c(OC)c1,inconclusive: 78.1%
14,CCCc1cc(-c2nc(-c3ccc(Br)cc3)cs2)ccn1,inactive: 75.5%
15,CCOCCCNC(=O)C(NC(=O)Cc1cccs1)c1ccc(Cl)cc1 (configuration not stated),inconclusive: 111%
16,CCCCNC(=O)CSc1nc(O)cc(=O)n1C1CCCC1,inconclusive: 96.8%
17,O=C(N/N=C/c1ccccc1Br)C1CC1,inconclusive: 80.4%
18,Cc1ccc(C)n1-c1c(C(=O)NN)cnn1-c1ccccc1,inconclusive: 91.4%
19,S=C(NC1CCCCC1)N1CCCCC1,inconclusive: 119%
20,COc1ccc(C(=O)N2CCC(O)(c3ccc(Cl)cc3)CC2)cc1OC,inconclusive: 106%
21,CCOC(=O)c1c(C)noc1-c1ccc(Br)o1,inconclusive: 158%
22,CCOC(=O)C1CCCN(Cc2nc(C3CC3)no2)C1 (configuration not stated),inconclusive: 116%
23,CC(/C=C(\NC(=O)c1ccccc1)C(=O)N=Nc1c(O)[nH]c2ccc(C)cc12)=C\c1ccccc1,inactive: 97.2%

row,Structure (SMILES),binding response (% of control)
1,COc1ccc(CC(=O)n2nc(-c3cccnc3)nc2N)cc1,inactive: 97.3%
2,CN1CCN(S(=O)(=O)CC2(C)C3CCC2(C)C(=O)C3Br)CC1 (configuration not stated),inconclusive: -483%
3,COCCNC(=O)CSc1nnc(-c2ccccc2)c(-c2ccccc2)n1,inconclusive: 111%
4,O=C(CSc1cccc[n+]1[O-])NCC1CCCCC1,inconclusive: 120%
5,CC1(C)c2ccccc2-n2c1cc1oc(=O)cc(O)c1c2=O,inconclusive: 107%
6,CCCOc1ccc(CCC(=O)N/N=C/c2ccc([N+](=O)[O-])o2)cc1,inconclusive: 61.7%
7,CS(=O)(=O)N1CC(C(=O)O)Oc2ccc(CC(=O)O)cc21 (configuration not stated),inactive: 93.1%
8,Cc1ccc(/C=N/n2c(-c3cccnc3)n[nH]c2=S)o1,inconclusive: 87.7%
9,c1ccc(-c2nnc(CSc3ccc4c(c3)OCCO4)o2)cc1,inactive: 96.3%
10,N=C1c2ccccc2CN1NC(=O)c1cccc(S(=O)(=O)N2CCOCC2)c1,inactive: 114%
11,O=C(NCc1ccccn1)c1cn(-c2ccccc2)nc1-c1ccc(Cl)cc1,inactive: 101%
12,Nc1nnn(CC(=O)N/N=C/c2ccco2)n1,inconclusive: 97.7%
13,CCO/N=C(\C)c1c(O)cc(C(C)C)n(-c2ccccc2)c1=O,inactive: 100%
14,CN(C(=O)COC(=O)/C=C/c1ccc(S(=O)(=O)N2CCc3ccccc32)cc1)C1CCS(=O)(=O)C1 (configuration not stated),inactive: 103%
15,CCOC(=O)c1nnn2c3ccccc3c(=O)n(C)c12,inconclusive: 132%
16,CC(C)CCN1CCN(Cc2cc(F)ccc2-n2cccn2)CC1CCO (configuration not stated),inconclusive: 93%
17,Cc1cccc(NC(=S)NCCc2ccc(F)cc2)c1C,inconclusive: 99.5%
18,Cc1nnc(SCC(=O)N2CCCC2)n(N)c1=O,inactive: 99.1%
19,CC(=O)NC(=S)NNC(=O)c1ccc(Br)cc1,inconclusive: 93.5%
20,CCOC(=O)Cn1cc(C#N)c2cccc(CC)c21,inactive: 96.2%
21,O=C(O)COCC(=O)Nc1ccc(-n2cnnn2)cc1,inactive: 89.2%
22,O=C(NCCc1nc2ccccc2[nH]1)/C(=C/c1ccc(F)cc1)NC(=O)c1ccco1,inconclusive: 79.2%
23,Cc1ccc2c(c1)cc(CN(Cc1ccco1)C(=O)COc1ccccc1)c1nnnn12,active: 159% [activator]
